Experiment [1] addresses VEGFR3 (human (endogenous in TIME cells)) (UniProt P35916). Put plainly: proximity ligation; Duolink II; transfected TIME cells starved 4 hours, stimulated with HGF or VEGFC, fixed with 4% paraformaldehyde and permeabilised; anti-DDK mouse monoclonal with rabbit polyclonal cMET (C28) or VEGFR3 (C20); spots quantified with ImageJ.
Experiment [2] has as its target cMET (receptor tyrosine kinase, receptor of HGF) (human (endogenous in TIME cells)) (UniProt P08581). The description is as above.
Experiment [3] concerns the target VEGFR3 (human (endogenous in TIME cells)) (UniProt P35916). Put plainly: co-IP; naive TIME cells serum-starved overnight, stimulated with HGF and VEGFC for 15 minutes; lysates immunoprecipitated with anti-cMET and anti-VEGFR3 antibodies on agarose beads; blots probed with anti-SHIP2.
Experiment [4] concerns the target cMET (receptor tyrosine kinase, receptor of HGF) (human (endogenous in TIME cells)) (UniProt P08581). Described as above.

Sequences of proteins named here, by UniProt entry; tags and fusion partners are left off. Residues count along the entry.
UniProt P35916, residues 25-1363: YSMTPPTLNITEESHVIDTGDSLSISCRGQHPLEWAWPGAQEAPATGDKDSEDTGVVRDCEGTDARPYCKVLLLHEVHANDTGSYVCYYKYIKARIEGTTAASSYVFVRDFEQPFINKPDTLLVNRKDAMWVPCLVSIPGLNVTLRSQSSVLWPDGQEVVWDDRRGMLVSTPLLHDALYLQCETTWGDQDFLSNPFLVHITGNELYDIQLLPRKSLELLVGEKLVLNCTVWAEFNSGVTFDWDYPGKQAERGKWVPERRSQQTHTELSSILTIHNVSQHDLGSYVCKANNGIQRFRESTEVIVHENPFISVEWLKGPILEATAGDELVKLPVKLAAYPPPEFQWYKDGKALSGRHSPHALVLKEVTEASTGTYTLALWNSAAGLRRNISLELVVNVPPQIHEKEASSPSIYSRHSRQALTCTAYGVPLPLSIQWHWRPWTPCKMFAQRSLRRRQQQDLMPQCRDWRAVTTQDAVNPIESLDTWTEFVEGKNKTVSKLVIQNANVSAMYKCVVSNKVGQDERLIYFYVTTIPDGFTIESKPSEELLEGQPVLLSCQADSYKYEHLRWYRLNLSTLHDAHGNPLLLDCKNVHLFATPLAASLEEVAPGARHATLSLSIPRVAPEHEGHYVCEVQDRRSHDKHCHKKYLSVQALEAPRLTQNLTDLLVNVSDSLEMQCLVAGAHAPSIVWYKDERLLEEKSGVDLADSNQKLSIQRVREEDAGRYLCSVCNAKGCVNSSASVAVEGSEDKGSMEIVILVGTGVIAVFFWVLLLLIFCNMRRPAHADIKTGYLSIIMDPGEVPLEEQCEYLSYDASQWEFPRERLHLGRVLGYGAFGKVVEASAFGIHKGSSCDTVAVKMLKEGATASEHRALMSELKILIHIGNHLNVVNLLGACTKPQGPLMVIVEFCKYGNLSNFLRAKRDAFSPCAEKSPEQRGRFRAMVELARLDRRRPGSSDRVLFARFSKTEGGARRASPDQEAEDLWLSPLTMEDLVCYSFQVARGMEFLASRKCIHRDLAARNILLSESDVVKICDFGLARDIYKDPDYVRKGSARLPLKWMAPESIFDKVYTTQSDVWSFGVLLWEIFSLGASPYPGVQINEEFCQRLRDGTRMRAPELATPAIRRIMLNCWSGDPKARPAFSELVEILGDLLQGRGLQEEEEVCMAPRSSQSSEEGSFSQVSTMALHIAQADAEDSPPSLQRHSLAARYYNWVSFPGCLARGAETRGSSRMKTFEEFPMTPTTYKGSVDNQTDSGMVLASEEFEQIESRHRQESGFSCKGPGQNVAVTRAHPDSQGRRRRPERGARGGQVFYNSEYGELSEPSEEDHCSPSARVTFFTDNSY
UniProt P08581, residues 25-1390: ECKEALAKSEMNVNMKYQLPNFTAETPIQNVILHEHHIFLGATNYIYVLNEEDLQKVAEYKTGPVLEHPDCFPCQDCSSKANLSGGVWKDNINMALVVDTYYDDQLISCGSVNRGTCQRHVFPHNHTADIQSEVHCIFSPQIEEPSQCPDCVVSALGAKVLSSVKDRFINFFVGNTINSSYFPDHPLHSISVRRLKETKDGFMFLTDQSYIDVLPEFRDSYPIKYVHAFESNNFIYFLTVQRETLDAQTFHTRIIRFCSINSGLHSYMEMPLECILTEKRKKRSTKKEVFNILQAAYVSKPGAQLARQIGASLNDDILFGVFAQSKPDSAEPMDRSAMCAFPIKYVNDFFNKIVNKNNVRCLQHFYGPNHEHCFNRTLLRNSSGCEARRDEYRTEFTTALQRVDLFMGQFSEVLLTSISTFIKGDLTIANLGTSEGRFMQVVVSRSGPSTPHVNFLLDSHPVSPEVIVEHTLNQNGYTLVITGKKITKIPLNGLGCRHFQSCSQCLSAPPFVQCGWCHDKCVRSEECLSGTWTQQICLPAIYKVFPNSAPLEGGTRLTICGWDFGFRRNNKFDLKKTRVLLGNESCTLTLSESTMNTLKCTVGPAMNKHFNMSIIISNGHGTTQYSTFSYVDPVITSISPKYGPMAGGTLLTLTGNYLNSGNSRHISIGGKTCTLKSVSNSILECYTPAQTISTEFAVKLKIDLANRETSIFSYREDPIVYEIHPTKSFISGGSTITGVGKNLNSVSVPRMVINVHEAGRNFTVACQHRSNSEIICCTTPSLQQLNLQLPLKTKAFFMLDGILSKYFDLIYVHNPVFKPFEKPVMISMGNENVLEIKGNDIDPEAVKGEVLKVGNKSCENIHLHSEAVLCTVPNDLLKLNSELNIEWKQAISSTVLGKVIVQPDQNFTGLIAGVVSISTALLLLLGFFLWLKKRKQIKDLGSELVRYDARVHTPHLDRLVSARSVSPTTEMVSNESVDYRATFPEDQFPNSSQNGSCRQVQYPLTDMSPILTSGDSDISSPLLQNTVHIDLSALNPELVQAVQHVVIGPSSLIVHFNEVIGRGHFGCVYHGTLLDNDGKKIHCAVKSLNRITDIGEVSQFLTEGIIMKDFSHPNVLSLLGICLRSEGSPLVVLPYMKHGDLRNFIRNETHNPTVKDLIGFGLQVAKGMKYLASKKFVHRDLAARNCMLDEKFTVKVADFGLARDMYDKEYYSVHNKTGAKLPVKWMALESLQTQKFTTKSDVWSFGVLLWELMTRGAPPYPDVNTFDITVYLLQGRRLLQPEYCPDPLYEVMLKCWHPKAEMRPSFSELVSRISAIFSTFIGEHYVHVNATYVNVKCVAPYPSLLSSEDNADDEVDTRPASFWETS

Residue numbers refer to the chain shown, from its start. Numbers in names are those of the source. Results are given in words; binding and its absence hold for the method and conditions named. Binding seen in cells or lysates may run through a third protein. Some binding calls cover weakened binding; strength is not graded here. For some assays here: Sequences can lack the tags named with a protein.

B1: FLAG-tagged wild type (WT) SHIP2 (SH2-domain containing 5'-inositol phosphatase-2) (enzyme, UniProt O15357-1 1-1258)
chain: MASACGAPGPGGALGSQAPSWYHRDLSRAAAEELLARAGRDGSFLVRDSESVAGAFALCVLYQKHVHTYRILPDGEDFLAVQTSQGVPVRRFQTLGELIGLYAQPNQGLVCALLLPVEGEREPDPPDDRDASDGEDEKPPLPPRSGSTSISAPTGPSSPLPAPETPTAPAAESAPNGLSTVSHDYLKGSYGLDLEAVRGGASHLPHLTRTLATSCRRLHSEVDKVLSGLEILSKVFDQQSSPMVTRLLQQQNLPQTGEQELESLVLKLSVLKDFLSGIQKKALKALQDMSSTAPPAPQPSTRKAKTIPVQAFEVKLDVTLGDLTKIGKSQKFTLSVDVEGGRLVLLRRQRDSQEDWTTFTHDRIRQLIKSQRVQNKLGVVFEKEKDRTQRKDFIFVSARKREAFCQLLQLMKNKHSKQDEPDMISVFIGTWNMGSVPPPKNVTSWFTSKGLGKTLDEVTVTIPHDIYVFGTQENSVGDREWLDLLRGGLKELTDLDYRPIAMQSLWNIKVAVLVKPEHENRISHVSTSSVKTGIANTLGNKGAVGVSFMFNGTSFGFVNCHLTSGNEKTARRNQNYLDILRLLSLGDRQLNAFDISLRFTHLFWFGDLNYRLDMDIQEILNYISRKEFEPLLRVDQLNLEREKHKVFLRFSEEEISFPPTYRYERGSRDTYAWHKQKPTGVRTNVPSWCDRILWKSYPETHIICNSYGCTDDIVTSDHSPVFGTFEVGVTSQFISKKGLSKTSDQAYIEFESIEAIVKTASRTKFFIEFYSTCLEEYKKSFENDAQSSDNINFLKVQWSSRQLPTLKPILADIEYLQDQHLLLTVKSMDGYESYGECVVALKSMIGSTAQQFLTFLSHRGEETGNIRGSMKVRVPTERLGTRERLYEWISIDKDEAGAKSKAPSVSRGSQEPRSGSRKPAFTEASCPLSRLFEEPEKPPPTGRPPAPPRAAPREEPLTPRLKPEGAPEPEGVAAPPPKNSFNNPAYYVLEGVPHQLLPPEPPSPARAPVPSATKNKVAITVPAPQLGHHRHPRVGEGSSSDEESGGTLPPPDFPPPPLPDSAIFLPPSLDPLPGPVVRGRGGAEARGPPPPKAHPRPPLPPGPSPASTFLGEVASGDDRSCSVLQMAKTLSEVDYAPAGPARSALLPGPLELQPPRGLPSDYGRPLSFPPPRIRESIQEDLAEEAPCLQGGRASGLGEAGMSAWLRAIGLERYEEGLVHNGWDDLEFLSDITEEDLEEAGVQDPAHKRLLLDTLQLSK
Regarding B1, the binding result in experiment [1] and in experiment [2] was “binds” each time.

B2: FLAG-tagged T180A SHIP2 mutant (enzyme, UniProt O15357-1 1-1258)
chain: B1 chain with T180A
Regarding B2, the binding result in experiment [1] is given as “binds”.

B3: endogenous SHIP2 (enzyme, UniProt O15357-1 1-1258)
chain: B1 chain
On to B3, for which the binding entry in experiment [3] and in experiment [4] was “binds” throughout.

The record behind these values is paper PMC4226566.
